# The other results are listed elsewhere or left out.
# Assays:
# Experiment in all cases: glycan array binding signal (z-score within array); higher = stronger binding
# Settings in all cases: glycan notation: IUPAC condensed, linker removed
# [1] = molecular target: Gal(b1-4)GlcNAc(b1-2)[Gal(b1-4)GlcNAc(b1-6)]Man(a1-6)[GlcNAc(b1-4)][Gal(b1-4)GlcNAc(b1-2)Man(a1-3)]Man(b1-4)GlcNAc(b1-4)GlcNAc
# Procedure, shortened: (§1)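 The Consortium for Functional Glycomics database supplied 3228 glycan arrays, of which those lacking an available protein sequence were dropped. The binding signal, a within-array Z-score, was averaged across arrays of the same protein sequence and across linkers. Negative scores can be read as non-binding.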
# [2] = molecular target: Gal(b1-4)GlcNAc(b1-2)[Gal(b1-4)GlcNAc(b1-6)]Man(a1-6)[GlcNAc(b1-4)][Gal(b1-4)GlcNAc(b1-2)[Gal(b1-4)GlcNAc(b1-4)]Man(a1-3)]Man(b1-4)GlcNAc(b1-4)[Fuc(a1-6)]GlcNAc
# Procedure, shortened: as §1
# [3] = molecular target: Gal(b1-4)GlcNAc(b1-3)Gal(b1-3)GalNAc
# Procedure, shortened: as §1
# [4] = molecular target: Gal(b1-4)GlcNAc(b1-3)Gal(b1-3)GlcNAc
# Procedure, shortened: as §1
# [5] = molecular target: Gal(b1-4)GlcNAc(b1-3)Gal(b1-4)Glc
# Procedure, shortened: as §1
# [6] = molecular target: Gal(b1-4)GlcNAc(b1-3)Gal(b1-4)GlcNAc
# Procedure, shortened: as §1
# [7] = molecular target: Gal(b1-4)GlcNAc(b1-3)Gal(b1-4)GlcNAc(b1-2)Man(a1-3)[Gal(b1-4)GlcNAc(b1-3)Gal(b1-4)GlcNAc(b1-2)Man(a1-6)]Man(b1-4)GlcNAc(b1-4)GlcNAc
# Procedure, shortened: as §1
# [8] = molecular target: Gal(b1-4)GlcNAc(b1-3)Gal(b1-4)GlcNAc(b1-2)Man(a1-3)[Gal(b1-4)GlcNAc(b1-3)Gal(b1-4)GlcNAc(b1-2)Man(a1-6)]Man(b1-4)GlcNAc(b1-4)[Fuc(a1-6)]GlcNAc
# Procedure, shortened: as §1
# [9] = molecular target: Gal(b1-4)GlcNAc(b1-3)Gal(b1-4)GlcNAc(b1-2)[Gal(b1-4)GlcNAc(b1-3)Gal(b1-4)GlcNAc(b1-6)]Man(a1-6)[Gal(b1-4)GlcNAc(b1-3)Gal(b1-4)GlcNAc(b1-2)Man(a1-3)]Man(b1-4)GlcNAc(b1-4)GlcNAc
# Procedure, shortened: as §1
# [10] = molecular target: Gal(b1-4)GlcNAc(b1-3)Gal(b1-4)GlcNAc(b1-2)[Gal(b1-4)GlcNAc(b1-3)Gal(b1-4)GlcNAc(b1-6)]Man(a1-6)[Gal(b1-4)GlcNAc(b1-3)Gal(b1-4)GlcNAc(b1-2)Man(a1-3)]Man(b1-4)GlcNAc(b1-4)[Fuc(a1-6)]GlcNAc
# Procedure, shortened: as §1
# [11] = molecular target: Gal(b1-4)GlcNAc(b1-3)Gal(b1-4)GlcNAc(b1-3)Gal(b1-4)GlcNAc
# Procedure, shortened: as §1
# [12] = molecular target: Gal(b1-4)GlcNAc(b1-3)Gal(b1-4)GlcNAc(b1-3)Gal(b1-4)GlcNAc(b1-2)Man(a1-3)[Gal(b1-4)GlcNAc(b1-3)Gal(b1-4)GlcNAc(b1-3)Gal(b1-4)GlcNAc(b1-2)Man(a1-6)]Man(b1-4)GlcNAc(b1-4)GlcNAc
# Procedure, shortened: as §1
# [13] = molecular target: Gal(b1-4)GlcNAc(b1-3)Gal(b1-4)GlcNAc(b1-3)Gal(b1-4)GlcNAc(b1-2)Man(a1-3)[Gal(b1-4)GlcNAc(b1-3)Gal(b1-4)GlcNAc(b1-3)Gal(b1-4)GlcNAc(b1-2)Man(a1-6)]Man(b1-4)GlcNAc(b1-4)[Fuc(a1-6)]GlcNAc
# Procedure, shortened: as §1
# [14] = molecular target: Gal(b1-4)GlcNAc(b1-3)Gal(b1-4)GlcNAc(b1-3)Gal(b1-4)GlcNAc(b1-2)[Gal(b1-4)GlcNAc(b1-3)Gal(b1-4)GlcNAc(b1-3)Gal(b1-4)GlcNAc(b1-6)]Man(a1-6)[Gal(b1-4)GlcNAc(b1-3)Gal(b1-4)GlcNAc(b1-3)Gal(b1-4)GlcNAc(b1-2)Man(a1-3)]Man(b1-4)GlcNAc(b1-4)[Fuc(a1-6)]GlcNAc
# Procedure, shortened: as §1
# [15] = molecular target: Gal(b1-4)GlcNAc(b1-3)Gal(b1-4)GlcNAc(b1-3)Gal(b1-4)GlcNAc(b1-3)Gal(b1-4)GlcNAc(b1-2)Man(a1-3)[Gal(b1-4)GlcNAc(b1-3)Gal(b1-4)GlcNAc(b1-3)Gal(b1-4)GlcNAc(b1-3)Gal(b1-4)GlcNAc(b1-2)Man(a1-6)]Man(b1-4)GlcNAc(b1-4)GlcNAc
# Procedure, shortened: as §1
# [16] = molecular target: Gal(b1-4)GlcNAc(b1-3)Gal(b1-4)GlcNAc(b1-3)Gal(b1-4)GlcNAc(b1-3)Gal(b1-4)GlcNAc(b1-2)Man(a1-3)[Gal(b1-4)GlcNAc(b1-3)Gal(b1-4)GlcNAc(b1-3)Gal(b1-4)GlcNAc(b1-3)Gal(b1-4)GlcNAc(b1-2)Man(a1-6)]Man(b1-4)GlcNAc(b1-4)[Fuc(a1-6)]GlcNAc
# Procedure, shortened: as §1
# [17] = molecular target: Gal(b1-4)GlcNAc(b1-3)Gal(b1-4)GlcNAc(b1-3)Gal(b1-4)GlcNAc(b1-3)Gal(b1-4)GlcNAc(b1-2)[Gal(b1-4)GlcNAc(b1-3)Gal(b1-4)GlcNAc(b1-3)Gal(b1-4)GlcNAc(b1-3)Gal(b1-4)GlcNAc(b1-6)]Man(a1-6)[Gal(b1-4)GlcNAc(b1-3)Gal(b1-4)GlcNAc(b1-3)Gal(b1-4)GlcNAc(b1-3)Gal(b1-4)GlcNAc(b1-2)Man(a1-3)]Man(b1-4)GlcNAc(b1-4)[Fuc(a1-6)]GlcNAc
# Procedure, shortened: as §1
# [18] = molecular target: Gal(b1-4)GlcNAc(b1-3)Gal(b1-4)GlcNAc(b1-3)Gal(b1-4)GlcNAc(b1-3)Gal(b1-4)GlcNAc(b1-3)Gal(b1-4)GlcNAc(b1-2)Man(a1-3)[Gal(b1-4)GlcNAc(b1-3)Gal(b1-4)GlcNAc(b1-3)Gal(b1-4)GlcNAc(b1-3)Gal(b1-4)GlcNAc(b1-3)Gal(b1-4)GlcNAc(b1-2)Man(a1-6)]Man(b1-4)GlcNAc(b1-4)GlcNAc
# Procedure, shortened: as §1
# [19] = molecular target: Gal(b1-4)GlcNAc(b1-3)Gal(b1-4)GlcNAc(b1-3)Gal(b1-4)GlcNAc(b1-3)Gal(b1-4)GlcNAc(b1-3)Gal(b1-4)GlcNAc(b1-2)Man(a1-3)[Gal(b1-4)GlcNAc(b1-3)Gal(b1-4)GlcNAc(b1-3)Gal(b1-4)GlcNAc(b1-3)Gal(b1-4)GlcNAc(b1-3)Gal(b1-4)GlcNAc(b1-2)Man(a1-6)]Man(b1-4)GlcNAc(b1-4)[Fuc(a1-6)]GlcNAc
# Procedure, shortened: as §1
# [20] = molecular target: Gal(b1-4)GlcNAc(b1-3)Gal(b1-4)GlcNAc(b1-3)Gal(b1-4)GlcNAc(b1-3)Gal(b1-4)GlcNAc(b1-3)Gal(b1-4)GlcNAc(b1-2)[Gal(b1-4)GlcNAc(b1-3)Gal(b1-4)GlcNAc(b1-3)Gal(b1-4)GlcNAc(b1-3)Gal(b1-4)GlcNAc(b1-3)Gal(b1-4)GlcNAc(b1-6)]Man(a1-6)[Gal(b1-4)GlcNAc(b1-3)Gal(b1-4)GlcNAc(b1-3)Gal(b1-4)GlcNAc(b1-3)Gal(b1-4)GlcNAc(b1-3)Gal(b1-4)GlcNAc(b1-2)Man(a1-3)]Man(b1-4)GlcNAc(b1-4)[Fuc(a1-6)]GlcNAc
# Procedure, shortened: as §1
# [21] = molecular target: Gal(b1-4)GlcNAc(b1-3)Gal(b1-4)GlcNAc(b1-3)Gal(b1-4)GlcNAc(b1-3)Gal(b1-4)GlcNAc(b1-3)Gal(b1-4)GlcNAc(b1-3)Gal(b1-4)GlcNAc(b1-2)Man(a1-3)[Gal(b1-4)GlcNAc(b1-3)Gal(b1-4)GlcNAc(b1-3)Gal(b1-4)GlcNAc(b1-3)Gal(b1-4)GlcNAc(b1-3)Gal(b1-4)GlcNAc(b1-3)Gal(b1-4)GlcNAc(b1-2)Man(a1-6)]Man(b1-4)GlcNAc(b1-4)GlcNAc
# Procedure, shortened: as §1
# [22] = molecular target: Gal(b1-4)GlcNAc(b1-3)Gal(b1-4)GlcNAc(b1-3)GalNAc
# Procedure, shortened: as §1
# [23] = molecular target: Gal(b1-4)GlcNAc(b1-3)Gal(b1-4)GlcNAc(b1-3)[Gal(b1-4)GlcNAc(b1-3)Gal(b1-4)GlcNAc(b1-6)]GalNAc
# Procedure, shortened: as §1
# [24] = molecular target: Gal(b1-4)GlcNAc(b1-3)Gal(b1-4)GlcNAc(b1-6)[Gal(b1-3)]GalNAc
# Procedure, shortened: as §1
# [25] = molecular target: Gal(b1-4)GlcNAc(b1-3)Gal(b1-4)[Fuc(a1-3)]GlcNAc(b1-3)Gal(b1-4)[Fuc(a1-3)]GlcNAc
# Procedure, shortened: as §1
# [26] = molecular target: Gal(b1-4)GlcNAc(b1-3)GalNAc
# Procedure, shortened: as §1
# [27] = molecular target: Gal(b1-4)GlcNAc(b1-3)[Fuc(a1-3)GlcNAc(b1-6)]Gal(b1-4)Glc
# Procedure, shortened: as §1
# [28] = molecular target: Gal(b1-4)GlcNAc(b1-3)[Gal(b1-4)GlcNAc(b1-6)]Gal(b1-4)GlcNAc
# Procedure, shortened: as §1
# [29] = molecular target: Gal(b1-4)GlcNAc(b1-3)[GlcNAc(b1-6)]Gal(b1-4)GlcNAc
# Procedure, shortened: as §1
# [30] = molecular target: Gal(b1-4)GlcNAc(b1-6)Gal(b1-4)GlcNAc
# Procedure, shortened: as §1
# [31] = molecular target: Gal(b1-4)GlcNAc(b1-6)GalNAc
# Procedure, shortened: as §1
# [32] = molecular target: Gal(b1-4)GlcNAc(b1-6)[Gal(b1-3)]GalNAc
# Procedure, shortened: as §1
# [33] = molecular target: Gal(b1-4)GlcNAc(b1-6)[Gal(b1-4)GlcNAc(b1-3)]GalNAc
# Procedure, shortened: as §1
# Gal(b1-4)GlcNAc6P = molecular target: Gal(b1-4)GlcNAc6P
# Procedure, shortened: as §1
# Gal(b1-6)Gal = molecular target: Gal(b1-6)Gal
# Procedure, shortened: as §1
# Gal3S(b1-3)GalNAc = molecular target: Gal3S(b1-3)GalNAc
# Procedure, shortened: as §1
# Gal3S(b1-3)GlcNAc = molecular target: Gal3S(b1-3)GlcNAc
# Procedure, shortened: as §1
# [34] = molecular target: Gal3S(b1-3)[Fuc(a1-4)]GlcNAc
# Procedure, shortened: as §1
binder,measurement,setting,value
"SspB C123 (Streptococcus gordonii), Q54186 (protein) MAHFHYSSLLAQPQINKEIKNEDGVDIDRTLVAKQSIGKFELKTEALTAGRPKTTSFVLVDPLPTGYKFDLDATKAASTGFDTTYDEASHTVTFKATDETLATYNADLTKPVETLHPTVVGRVLNDGATYTNNFTLTVNDAYGIKSNVVRVTTPGKPNDPDNPNNNYIKPTKVNKNKEGLNIDGKEVLAGSTNYYELTWDLDQYKGDKSSKEAIQNGFYYVDDYPEEALDVRPDLVKVADEKGNQVSGVSVQQYDSLEAAPKKVQDLLKKANITVKGAFQLFSADNPEEFYKQYVSTGTSLVITDPMTVKSEFGKTGGKYENKAYQIDFGNGYATEVVVNNVPKITPKKDVTVSLDPTSENLDGQTVQLYQTFNYRLIGGFIPQNHSEELEDYSFVDDYDQAGDQYTGNYKTFSSLNLTMKDGSVIKAGTDLTSQTTAETDATNGIVTVRFKEDFLQKISLDSPFQAETYLQMRRIAIGTFENTYVNTVNKVAYASAAALEHHHHHH",glycan array binding signal (z-score),[1],0.477
same,glycan array binding signal (z-score),[2],-0.17
same,glycan array binding signal (z-score),[3],-0.069
same,glycan array binding signal (z-score),[4],1.37
same,glycan array binding signal (z-score),[5],-0.647
same,glycan array binding signal (z-score),[6],-1.78
same,glycan array binding signal (z-score),[7],1.58
same,glycan array binding signal (z-score),[8],-0.449
same,glycan array binding signal (z-score),[9],1.17
same,glycan array binding signal (z-score),[10],0.206
same,glycan array binding signal (z-score),[11],1.51
same,glycan array binding signal (z-score),[12],-0.046
same,glycan array binding signal (z-score),[13],1.26
same,glycan array binding signal (z-score),[14],1.76
same,glycan array binding signal (z-score),[15],1.28
same,glycan array binding signal (z-score),[16],1.48
same,glycan array binding signal (z-score),[17],-0.338
same,glycan array binding signal (z-score),[18],0.731
same,glycan array binding signal (z-score),[19],0.993
same,glycan array binding signal (z-score),[20],2.74
same,glycan array binding signal (z-score),[21],0.305
same,glycan array binding signal (z-score),[22],-0.361
same,glycan array binding signal (z-score),[23],1.18
same,glycan array binding signal (z-score),[24],0.953
same,glycan array binding signal (z-score),[25],-0.759
same,glycan array binding signal (z-score),[26],0.085
same,glycan array binding signal (z-score),[27],-1.21
same,glycan array binding signal (z-score),[28],0.15
same,glycan array binding signal (z-score),[29],0.826
same,glycan array binding signal (z-score),[30],-0.52
same,glycan array binding signal (z-score),[31],0.597
same,glycan array binding signal (z-score),[32],0.155
same,glycan array binding signal (z-score),[33],-0.8
same,glycan array binding signal (z-score),Gal(b1-4)GlcNAc6P,-0.006
same,glycan array binding signal (z-score),Gal(b1-6)Gal,-0.548
same,glycan array binding signal (z-score),Gal3S(b1-3)GalNAc,0.761
same,glycan array binding signal (z-score),Gal3S(b1-3)GlcNAc,0.104
same,glycan array binding signal (z-score),[34],0.284
